In experiment [1] the target is T1, human diacylglycerol O-acyltransferase 2, FLAG-tagged (DGAT2-FLAG) (human) (UniProt Q96PD7).
T1 sequence: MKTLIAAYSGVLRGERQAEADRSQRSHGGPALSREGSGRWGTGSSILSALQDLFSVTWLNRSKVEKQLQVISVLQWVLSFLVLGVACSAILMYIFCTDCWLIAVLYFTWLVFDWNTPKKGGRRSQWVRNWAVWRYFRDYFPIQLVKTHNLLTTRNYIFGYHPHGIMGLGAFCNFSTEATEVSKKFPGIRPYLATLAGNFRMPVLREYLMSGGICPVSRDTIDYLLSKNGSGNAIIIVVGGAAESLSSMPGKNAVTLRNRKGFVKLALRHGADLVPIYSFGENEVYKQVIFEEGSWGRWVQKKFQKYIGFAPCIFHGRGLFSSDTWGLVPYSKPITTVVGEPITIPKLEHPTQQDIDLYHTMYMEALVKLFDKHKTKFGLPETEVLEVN
In words: co-IP; Huh7 cells cotransfected with DGAT2-FLAG and ZIKV NS2B3-HA plasmids; whole-cell lysates; IP with anti-FLAG antibody.

Experiment [2] has as its target ZIKV NS2B3-S135A-HA (protease-dead mutant) (Zika virus (H/PF/2013 strain)). In words: co-IP; Huh7 cells cotransfected with FLAG-tagged DGAT2 (whole or truncated) and HA-tagged NS2B3 (whole, truncated or S135A); whole-cell lysates (RIPA lysis buffer); IP with anti-HA agarose beads, 4 °C overnight; blots with anti-HA and anti-FLAG.
Experiment [3] addresses ZIKV NS2B3-HA (NS2B-NS3 protease, wild type) (Zika virus (H/PF/2013 strain)). In words: co-IP; 293T cells cotransfected with DGAT2-FLAG and ZIKV NS-HA plasmids; whole-cell extracts (RIPA lysis buffer); IP with anti-HA agarose beads, 4 °C overnight; blots with anti-FLAG and anti-HA.
For experiment [4] the target is unchanged. Put plainly: co-IP; Huh7 cells cotransfected with FLAG-tagged DGAT2 (whole or truncated) and HA-tagged NS2B3 (whole, truncated or S135A); whole-cell lysates (RIPA lysis buffer); IP with anti-HA agarose beads, 4 °C overnight; blots with anti-HA and anti-FLAG.

This passage reports binding results from publication PMC11499588.

No constants are given. Whether binding was seen depends on the method and setting. In cells and extracts the contact can be indirect. Binding calls can cover weak binding; strength is not graded here. Where a sequence is shown, tags or fusion partners need not be part of it.

“ZIKV NS2B3-HA (NS2B-NS3 protease, wild type) (Zika virus (H/PF/2013 strain)) (enzyme)”: the binding result in experiment [1] was “binds”.

B1: human diacylglycerol O-acyltransferase 2, FLAG-tagged (DGAT2-FLAG) (enzyme, UniProt Q96PD7 1-388)
chain: MKTLIAAYSGVLRGERQAEADRSQRSHGGPALSREGSGRWGTGSSILSALQDLFSVTWLNRSKVEKQLQVISVLQWVLSFLVLGVACSAILMYIFCTDCWLIAVLYFTWLVFDWNTPKKGGRRSQWVRNWAVWRYFRDYFPIQLVKTHNLLTTRNYIFGYHPHGIMGLGAFCNFSTEATEVSKKFPGIRPYLATLAGNFRMPVLREYLMSGGICPVSRDTIDYLLSKNGSGNAIIIVVGGAAESLSSMPGKNAVTLRNRKGFVKLALRHGADLVPIYSFGENEVYKQVIFEEGSWGRWVQKKFQKYIGFAPCIFHGRGLFSSDTWGLVPYSKPITTVVGEPITIPKLEHPTQQDIDLYHTMYMEALVKLFDKHKTKFGLPETEVLEVN
Turning to B1, the binding result in experiment [2] and in experiment [3] was “binds” in each case.

B2: DGAT2 1-120 aa-FLAG (DGAT2-N120-FLAG) (domain or fragment, UniProt Q96PD7 1-120)
chain: MKTLIAAYSGVLRGERQAEADRSQRSHGGPALSREGSGRWGTGSSILSALQDLFSVTWLNRSKVEKQLQVISVLQWVLSFLVLGVACSAILMYIFCTDCWLIAVLYFTWLVFDWNTPKKG
Turning to B2, the binding entry in experiment [4] is recorded as “no binding”.

B3: DGAT2 121-250 aa-FLAG (domain or fragment, UniProt Q96PD7 121-250)
chain: GRRSQWVRNWAVWRYFRDYFPIQLVKTHNLLTTRNYIFGYHPHGIMGLGAFCNFSTEATEVSKKFPGIRPYLATLAGNFRMPVLREYLMSGGICPVSRDTIDYLLSKNGSGNAIIIVVGGAAESLSSMPG
Regarding B3, the binding entry in experiment [4] was “binds”.
